According to publication PMC12520357 (2025):
Results are given in words; binding and its absence hold for the method and conditions named. Binding seen in cells or lysates may run through a third protein. Some entries that bind do so weakly or less than the wild type. Tags and fused reporters may be left off the sequences shown.

Chains of the proteins cited; added tags and fusions are not shown.
UniProt P32598: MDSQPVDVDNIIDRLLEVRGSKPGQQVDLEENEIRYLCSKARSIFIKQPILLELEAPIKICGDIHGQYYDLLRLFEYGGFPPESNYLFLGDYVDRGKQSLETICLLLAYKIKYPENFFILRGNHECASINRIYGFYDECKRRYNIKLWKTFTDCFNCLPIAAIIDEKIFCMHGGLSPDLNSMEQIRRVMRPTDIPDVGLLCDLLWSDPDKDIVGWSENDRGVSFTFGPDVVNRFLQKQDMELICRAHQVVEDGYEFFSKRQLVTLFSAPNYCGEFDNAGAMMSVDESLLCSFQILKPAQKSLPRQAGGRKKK

Assays:
[1] = molecular target: T1, Reg1-W165G-FLAG (S. cerevisiae) (UniProt Q00816); assay: co-IP; Reg1-FLAG precipitated on anti-FLAG M2 agarose from native yeast lysates (50 mM HEPES pH 7.5, 150 mM NaCl, 0.5% Triton X-100, 1 mM DTT, 10% glycerol), 1 h at 4°C; blots with anti-FLAG, anti-GFP (Glc7, Snf1) and anti-14-3-3; steady state
T1 sequence: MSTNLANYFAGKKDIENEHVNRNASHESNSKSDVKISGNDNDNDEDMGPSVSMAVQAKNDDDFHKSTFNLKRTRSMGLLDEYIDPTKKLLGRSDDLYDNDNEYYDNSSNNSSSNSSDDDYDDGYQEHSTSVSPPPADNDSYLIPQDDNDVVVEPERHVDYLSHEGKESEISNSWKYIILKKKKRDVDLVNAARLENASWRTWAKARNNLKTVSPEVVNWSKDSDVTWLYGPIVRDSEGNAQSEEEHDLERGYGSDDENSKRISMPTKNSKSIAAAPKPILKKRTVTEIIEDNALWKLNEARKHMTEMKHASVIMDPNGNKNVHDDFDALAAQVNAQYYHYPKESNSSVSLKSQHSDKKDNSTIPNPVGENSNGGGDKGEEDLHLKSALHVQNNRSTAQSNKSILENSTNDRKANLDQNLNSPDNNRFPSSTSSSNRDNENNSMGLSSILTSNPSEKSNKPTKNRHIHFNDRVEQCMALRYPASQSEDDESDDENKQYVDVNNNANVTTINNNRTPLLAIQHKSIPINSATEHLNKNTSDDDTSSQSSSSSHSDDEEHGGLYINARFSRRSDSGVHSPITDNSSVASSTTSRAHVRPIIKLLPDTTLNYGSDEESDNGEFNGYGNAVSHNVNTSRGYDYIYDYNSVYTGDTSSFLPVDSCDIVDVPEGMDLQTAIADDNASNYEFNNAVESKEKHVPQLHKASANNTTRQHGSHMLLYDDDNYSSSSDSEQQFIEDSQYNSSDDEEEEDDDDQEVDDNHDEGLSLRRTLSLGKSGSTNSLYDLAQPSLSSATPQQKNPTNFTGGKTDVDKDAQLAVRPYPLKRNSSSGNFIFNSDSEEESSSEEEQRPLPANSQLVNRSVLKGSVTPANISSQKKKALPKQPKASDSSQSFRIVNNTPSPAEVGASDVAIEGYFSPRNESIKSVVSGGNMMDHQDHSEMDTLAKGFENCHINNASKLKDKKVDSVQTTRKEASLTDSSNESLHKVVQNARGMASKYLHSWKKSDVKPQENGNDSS

[2] = molecular target: T2, Reg1-A54T-FLAG (S. cerevisiae) (UniProt Q00816); assay: as above
T2 sequence: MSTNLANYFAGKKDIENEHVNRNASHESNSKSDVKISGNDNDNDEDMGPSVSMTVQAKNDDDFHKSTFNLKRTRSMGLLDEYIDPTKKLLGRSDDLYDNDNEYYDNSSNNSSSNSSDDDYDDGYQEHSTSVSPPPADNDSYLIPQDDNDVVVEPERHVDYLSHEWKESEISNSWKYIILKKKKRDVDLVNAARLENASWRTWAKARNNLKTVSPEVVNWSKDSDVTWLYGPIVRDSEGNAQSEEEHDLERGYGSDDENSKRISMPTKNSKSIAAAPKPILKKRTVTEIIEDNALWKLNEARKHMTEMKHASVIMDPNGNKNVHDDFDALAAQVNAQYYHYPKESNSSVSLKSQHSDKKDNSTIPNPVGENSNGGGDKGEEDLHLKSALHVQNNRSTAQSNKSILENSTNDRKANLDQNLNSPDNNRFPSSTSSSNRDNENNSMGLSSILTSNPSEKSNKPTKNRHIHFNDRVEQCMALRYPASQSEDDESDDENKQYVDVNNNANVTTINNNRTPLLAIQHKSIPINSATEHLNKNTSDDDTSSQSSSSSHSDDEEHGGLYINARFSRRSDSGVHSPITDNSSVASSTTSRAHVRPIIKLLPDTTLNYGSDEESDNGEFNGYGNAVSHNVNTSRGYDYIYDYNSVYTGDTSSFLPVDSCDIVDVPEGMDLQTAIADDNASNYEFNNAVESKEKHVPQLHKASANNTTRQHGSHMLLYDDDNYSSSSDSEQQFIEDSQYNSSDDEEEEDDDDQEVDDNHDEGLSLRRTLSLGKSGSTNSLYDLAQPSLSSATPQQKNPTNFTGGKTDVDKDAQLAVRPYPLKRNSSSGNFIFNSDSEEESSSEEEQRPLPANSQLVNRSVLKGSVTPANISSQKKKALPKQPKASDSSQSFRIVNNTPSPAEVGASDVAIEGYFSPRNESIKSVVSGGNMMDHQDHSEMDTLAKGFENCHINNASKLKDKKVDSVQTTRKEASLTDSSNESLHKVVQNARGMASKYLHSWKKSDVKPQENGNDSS

Molecule | binding [1] | binding [2]
Glc7-GFP (from UniProt P32598 1-312) | binds | binds
Snf1-GFP (protein, UniProt P06782 1-633) MSSNNNTNTAPANANSSHHHHHHHHHHHHHGHGGSNSTLNNPKSSLADGAHIGNYQIVKTLGEGSFGKVKLAYHTTTGQKVALKIINKKVLAKSDMQGRIEREISYLRLLRHPHIIKLYDVIKSKDEIIMVIEYAGNELFDYIVQRDKMSEQEARRFFQQIISAVEYCHRHKIVHRDLKPENLLLDEHLNVKIADFGLSNIMTDGNFLKTSCGSPNYAAPEVISGKLYAGPEVDVWSCGVILYVMLCRRLPFDDESIPVLFKNISNGVYTLPKFLSPGAAGLIKRMLIVNPLNRISIHEIMQDDWFKVDLPEYLLPPDLKPHPEEENENNDSKKDGSSPDNDEIDDNLVNILSSTMGYEKDEIYESLESSEDTPAFNEIRDAYMLIKENKSLIKDMKANKSVSDELDTFLSQSPPTFQQQSKSHQKSQVDHETAKQHARRMASAITQQRTYHQSPFMDQYKEEDSTVSILPTSLPQIHRANMLAQGSPAASKISPLVTKKSKTRWHFGIRSRSYPLDVMGEIYIALKNLGAEWAKPSEEDLWTIKLRWKYDIGNKTNTNEKIPDLMKMVIQLFQIETNNYLVDFKFDGWESSYGDDTTVSNISEDEMSTFSAYPFLHLTTKLIMELAVNSQSN | binds | binds
